Results are given in words; binding and its absence hold for the method and conditions named. Binding seen in cells or lysates may run through a third protein. Some results given as binding are weak or reduced against the parent protein; the word gives no strength.
Tests used:
[1] = target: Glucose-regulated protein 75 (GRP75) (human (endogenous in SH-SY5Y)) (UniProt P38646); test: co-IP; lysates of 30 human primary NB tumors (13 GNB, 9 DNB, 8 UNB); immunoprecipitation with anti-GRP75, immunoblot with anti-RARα or anti-RXRα
[2] = target: Glucose-regulated protein 75 (GRP75) (human (endogenous in SH-SY5Y)) (UniProt P38646); test: co-IP; cytosolic pools of SH-SY5Y cells treated with RA (10 µM) or 0.1% DMSO for various intervals; immunoprecipitation with anti-GRP75 on protein A agarose, Western blot with anti-RARα or anti-RXRα
[3] = target: Glucose-regulated protein 75 (GRP75) (human (endogenous in SH-SY5Y)) (UniProt P38646); test: co-IP; clarified lysates of stNB-V1 xenograft tumors from nude mice treated with RA (1 mg/kg b.w.) or vehicle daily for 14 d; immunoprecipitation with anti-GRP75, immunoblot with anti-RARα or anti-RXRα
[4] = target: Glucose-regulated protein 75 (GRP75) (human (endogenous in SH-SY5Y)) (UniProt P38646); test: co-IP; nuclear lysates of SK-N-SH, SK-N-MC, stNB-V1, SK-N-BE, SK-N-DZ and IMR-32 cells treated with 10 µM RA or 0.1% DMSO for 1 d; immunoprecipitation with mouse anti-GRP75, immunoblot with anti-RARα or anti-RXRα
[5] = target: Glucose-regulated protein 75 (GRP75) (human (endogenous in SH-SY5Y)) (UniProt P38646); test: co-IP; nuclear extracts (Nuclei EZ Prep Kit) of SH-SY5Y cells treated with RA (10 µM) or 0.1% DMSO for various intervals; immunoprecipitation with anti-GRP75 on protein A agarose, Western blot with anti-RARα or anti-RXRα

Chains of the proteins cited; added tags and fusions are not shown. Lines headed by an entry give the natural chain unless they say otherwise; changes in a name come on top. Residues count along the entry.
UniProt P38646, residues 47-679: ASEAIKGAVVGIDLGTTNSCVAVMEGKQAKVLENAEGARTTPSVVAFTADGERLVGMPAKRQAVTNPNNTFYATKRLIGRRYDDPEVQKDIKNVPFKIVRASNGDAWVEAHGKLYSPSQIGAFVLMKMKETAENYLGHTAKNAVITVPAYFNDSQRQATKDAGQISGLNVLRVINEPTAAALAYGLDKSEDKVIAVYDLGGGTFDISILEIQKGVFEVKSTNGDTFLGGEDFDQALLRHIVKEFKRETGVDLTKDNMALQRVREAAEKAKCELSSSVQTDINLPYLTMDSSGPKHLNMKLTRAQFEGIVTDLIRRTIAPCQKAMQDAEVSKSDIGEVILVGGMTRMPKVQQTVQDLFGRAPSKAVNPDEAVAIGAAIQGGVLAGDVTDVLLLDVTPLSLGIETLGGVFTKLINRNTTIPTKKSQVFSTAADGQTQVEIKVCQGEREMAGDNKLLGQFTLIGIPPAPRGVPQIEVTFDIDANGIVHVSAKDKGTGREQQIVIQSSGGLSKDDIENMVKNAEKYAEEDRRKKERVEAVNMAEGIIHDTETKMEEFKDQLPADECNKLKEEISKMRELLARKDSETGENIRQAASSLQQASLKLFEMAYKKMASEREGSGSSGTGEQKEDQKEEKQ
UniProt P10276: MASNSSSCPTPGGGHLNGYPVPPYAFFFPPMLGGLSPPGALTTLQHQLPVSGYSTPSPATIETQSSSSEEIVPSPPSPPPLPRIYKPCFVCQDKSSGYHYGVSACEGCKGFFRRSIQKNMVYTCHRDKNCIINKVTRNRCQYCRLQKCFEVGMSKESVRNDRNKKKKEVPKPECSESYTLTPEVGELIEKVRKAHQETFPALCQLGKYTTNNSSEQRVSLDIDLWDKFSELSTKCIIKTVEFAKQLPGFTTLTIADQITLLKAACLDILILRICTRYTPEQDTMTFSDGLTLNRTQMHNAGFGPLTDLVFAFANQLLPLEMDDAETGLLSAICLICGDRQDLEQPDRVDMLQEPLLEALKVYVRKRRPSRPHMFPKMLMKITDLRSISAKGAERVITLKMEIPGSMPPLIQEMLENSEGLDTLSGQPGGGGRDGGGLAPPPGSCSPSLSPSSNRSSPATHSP

binding [1]: binds
binding [2]: binds weakly
binding [3]: binds
binding [4]: binds
binding [5]: binds
Substance: RARα/RXRα heterodimer (retinoic acid receptor alpha / retinoid X receptor alpha) (from UniProt P10276 1-462; P19793 1-462) (complex)

Reference: publication PMC3194821
